Data as given in patent US20100120894A1.
Results are given in words; binding and its absence hold for the method and conditions named. For some of these results: In cells and extracts the contact can be indirect. Some binding calls cover weakened binding; strength is not graded here. Where a sequence is shown, tags or fusion partners need not be part of it.

Amino acid sequences for entries named in this document (tags omitted).
UniProt Q9ULZ3: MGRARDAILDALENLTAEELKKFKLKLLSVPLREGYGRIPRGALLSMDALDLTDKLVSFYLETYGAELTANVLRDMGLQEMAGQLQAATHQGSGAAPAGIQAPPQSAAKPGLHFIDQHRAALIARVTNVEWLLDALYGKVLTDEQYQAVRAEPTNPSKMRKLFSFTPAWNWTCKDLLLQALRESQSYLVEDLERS

What was measured:
[1] = target: ASC-YFP stably expressed in HEK293 cells (UniProt Q9ULZ3); test: figure title: confocal co-localisation with ASC-YFP and co-immunoprecipitation
HA-tagged ASC (human) [2] = target: HA-tagged ASC (human) (UniProt Q9ULZ3); test: epifluorescence microscopy, cluster formation of PYD-CFP in 293T cells with increasing ASC-HA
HA-tagged ASC (human) [3] = target: HA-tagged ASC (human) (UniProt Q9ULZ3); test: co-immunoprecipitation with anti-HA beads from 293T cells, immunoblot with anti-CFP
[4] = target: ASC-YFP stably expressed in HEK293 cells (UniProt Q9ULZ3); test: confocal microscopy, co-aggregation in HEK293-ASC-YFP cells

Measured: binding

B1: AIM2-PYD (1-83) C-terminally tagged with CFP (protein, human, UniProt O14862 1-83, looked up, not shown: large carriers)
chain: MESKYKEILLLTGLDNITDEELDRFKFFLSDEFNIATGKLHTANRIQVATLMIQNAGAVSAVMKTIRIFQKLNYMLLAKRLQE
binds: all assays above
